Assay results from publication PMC4068993, “Chlamydia pneumoniae CopD Translocator Protein Plays a Critical Role in Type III Secretion (T3S) and Infection” (PLoS ONE, 2014).

What was measured:
Experiment in all cases: pull-down; GST-tagged bait on glutathione-agarose beads blocked with 5% BSA; 1 mL E. coli lysate with overexpressed His-tagged prey, 2 h at 4°C; seven washes with high salt buffer (500 mM KCl, 20 mM TRIS-HCl pH 7.0, 0.1% Triton X-100; results say 500 mM NaCl); anti-His Western blot; only the target purified
[1] = molecular target: T1, GST-^ΔL122ACopD_(1–157) (Chlamydia pneumoniae CWL029) (UniProt Q9Z798)
T1 sequence: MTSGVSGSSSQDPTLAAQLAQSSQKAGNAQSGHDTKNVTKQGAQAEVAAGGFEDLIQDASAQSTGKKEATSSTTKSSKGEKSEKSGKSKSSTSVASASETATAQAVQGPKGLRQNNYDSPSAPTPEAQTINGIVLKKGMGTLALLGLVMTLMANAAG

[2] = molecular target: T2, GST-^ΔP120ACopD_(1–157) (Chlamydia pneumoniae CWL029) (UniProt Q9Z798)
T2 sequence: T1 sequence with P120A, A122L

[3] = molecular target: T3, GST-^ΔP125ACopD_(1–157) (Chlamydia pneumoniae CWL029) (UniProt Q9Z798)
T3 sequence: T1 sequence with A122L, P125A

Measured: binding

His-LcrH_1 (Chlamydia pneumoniae CWL029)
no binding: all assays above

Residue numbers refer to the chain shown, from its start. These are yes or no findings as the source states them, for the method shown. In cells and extracts the contact can be indirect. Where a sequence is shown, tags or fusion partners need not be part of it.
